From patent US10487094B1, “Bergenin thiodipropionic acid ester with antioxidant activity and a method of improving the antioxidant property of ganoderma lucidum spore oil using the same” (SHAANXI UNIVERSITY OF SCIENCE AND TECHNOLOGY, priority 2018, dated 2019)

Assay: DPPH radical scavenging activity of sample and control solutions
Format: biochemical
Settings: solution + DPPH, 517 nm
Source text: In the DPPH molecule, due to the presence of multiple electron-withdrawing —NO2 and large π bonds of the benzene ring, nitrogen free radical is stabilized. Its methanol solution is purple and has a maximum absorption peak at 517 nm. After the addition of an antioxidant, DPPH captures an electron to be paired with the free electron, and the purple fades and turns into a yellow substance. The absorption at 517 nm disappears, and the degree of fading is quantitatively related to the number of electrons it captures. Based on this principle, a spectrophotometer is used to detect the change of the absorbance of the DPPH radical and the sample solution, and the ability of the sample to provide hydrogen atoms and scavenge free radicals can be measured.
Preparation of DPPH Solution: Measuring Exact Amount of 1,1-diphenyl-2-picryl hydrazyl (DPPH) and dissolving in methanol to prepare a 0.2 mmol/L DPPH Solution, Stored at 0° C. in Dark
Preparation of sample solutions: Vitamin C (positive control), bergenin thiodipripionic acid ester (sample), bergenin (control), thiodipropionic acid (control), mixture of bergenin and thiodipropionic acid (control). The sample solution was serially diluted with acetonitrile, and four groups of controls were separately dissolved in a test tube with a certain amount of methanol to prepare the same concentration gradient as the sample. Four corresponding groups of control solutions were prepared in the same way.
2 mL of the sample solution (Table 1: B), 2 mL 0.2 mmol/L DPPH solution was added, the mixture was mixed and reacted at room temperature in dark for 30 minutes, and methanol was then added to adjust final volume. The absorbance Ai was measured at 517 nm. 2 mL control solution and 2 mL methanol were mixed, and the absorbance Aj was measured. 2 mL DPPH solution and 2 mL methanol were mixed, and the absorbance A0 was measured.
2 mL of the control solutions (Table 1: C, D, E), 2 mL 0.2 mmol/L DPPH solution was added, the mixture was mixed and reacted at room temperature in dark for 30 minutes, and methanol was then added to adjust final volume. The absorbance Ai was measured at 517 nm. 2 mL control solution and 2 mL methanol were mixed, and the absorbance Aj was measured. 2 mL DPPH solution and 2 mL methanol were mixed, and the absorbance A0 was measured. The scavenging activity of the sample solution and control solutions is calculated according to the following calculation formula. Scavenging activity (%)=[1−(Ai−Aj)/Ao]*100%

Row | Compound | Absorbance Ai (0.04 mg/ml) | Absorbance Ai (0.08 mg/ml) | Absorbance Ai (0.16 mg/ml) | Absorbance Ai (0.83 mg/ml) | Absorbance Ai (1.66 mg/ml) | Absorbance Ai (8.28 mg/ml) | Absorbance Ai (16.56 mg/ml) | Absorbance Ai (24.84 mg/ml) | Absorbance Ai (33.12 mg/ml)
1 | COc1c(O)cc2c(c1O)C1OC(COC(=O)CCSCCC(=O)OCC3OC4c5c(cc(O)c(OC)c5O)C(=O)OC4C(O)C3O)C(O)C(O)C1OC2=O (stereo not drawn) [B, bis((3,4,8,10-tetrahydroxy-9-methoxy-6-oxo-2,3,4,4a,6,10b-hexahydropyrano[3,2-c]isochromen-2-yl)methyl) 3,3′-thiodipropionate] | 0.651 | 0.563 | 0.441 | 0.360 | 0.261 | 0.158 | 0.043 | 0.038 | 0.035
2 | COc1c(O)cc2c(c1O)[C@@H]1O[C@H](CO)[C@@H](O)[C@H](O)[C@H]1OC2=O [C, Bergenin] | 0.935 | 0.898 | 0.820 | 0.762 | 0.595 | 0.420 | 0.046 | 0.046 | 0.041
3 | O=C(O)CCSCCC(=O)O [D, Thiodipropionic acid] | 0.858 | 0.798 | 0.795 | 0.793 | 0.792 | 0.782 | 0.771 | 0.760 | 0.747
